Laboratory results taken from PMC10112980.
No constants are given. Whether binding was seen depends on the method and setting. Binding seen in cells or lysates may run through a third protein. Some binding calls cover weakened binding; strength is not graded here.

T1: SUN4 (mouse (endogenous in testis cells)) (UniProt Q9JJF2)
T1 sequence: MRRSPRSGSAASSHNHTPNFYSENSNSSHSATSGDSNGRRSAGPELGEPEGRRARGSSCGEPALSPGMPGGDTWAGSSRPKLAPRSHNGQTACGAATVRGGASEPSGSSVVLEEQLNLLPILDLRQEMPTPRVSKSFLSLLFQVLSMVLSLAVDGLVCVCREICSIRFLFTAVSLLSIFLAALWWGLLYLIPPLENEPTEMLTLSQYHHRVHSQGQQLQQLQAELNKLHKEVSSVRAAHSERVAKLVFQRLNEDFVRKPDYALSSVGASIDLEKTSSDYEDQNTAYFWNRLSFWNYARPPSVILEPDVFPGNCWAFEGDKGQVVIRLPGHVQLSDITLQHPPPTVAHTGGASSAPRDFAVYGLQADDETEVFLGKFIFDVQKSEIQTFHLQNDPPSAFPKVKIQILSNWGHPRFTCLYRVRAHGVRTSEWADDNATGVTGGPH

B1: SUN3 (protein, UniProt Q5SS91 1-320)
chain: MLTRSWKIILSTVFISTFLLVGLLNHQWLKETEFPQKPRQLYTVIAEYGSRLYNYQARLRMPKEQQELLKKESQTLENNFREILFLIEQIDVLKALLKDMKDGVHNHSLPVHRDAVQDQATTDVLDEEMSNLVHYVLKKFRGDQIQLADYALKSAGASVIEAGTSESYKNNKAKLYWHGIGFLNYEMPPDMILQPDVHPGKCWAFPGSQGHILIKLARKIIPTAVTMEHISEKVSPSGNISSAPKEFSVYGVMKKCEGEEIFLGQFIYNKMEATIQTFELQNEASESLLCVKLQILSNWGHPKYTCLYRFRVHGIPSDYT
B2: lamin B3 (protein, UniProt P21619-2 1-474)
chain: MGESESMRGTGEGCGRDCPEAARPLMETVEGALPELRGRPLREYVKRRPRGLGKTPVEDPVKSEGAVGYPRTWNNHLRVPTREQEVRETRRRHERRLVEVDSSRQQEYDFKMAQALEDLRSQHDEQVRLYRVELEQTYQAKLDNAKLLSDQNDKAAHAAREELKEARMRVESLSYQLLGLQKQASAAENHIHELEEALAGERDKFRKMLDAKEQEMTEVRDAMQQQLAEYQELLDIKLALDMEISAYRKLLEGEEERLKLSPSPSSRITISRATSSSSSSSGVGMSVGQGRGKRRRLETEDTSGSPSRASRVSSGSRLAQQTVATGVVNIDEVDPEGRFVRLKNSSDKDQSLGNWRIKRQVLEGEDIAYKFTPKYVLRAGQTVTVWAAGAGATHSPPSTLVWKSQTNWGPGESFRTALVSADGEEVAVKAAKHSSVQGRENGEEEEEEEAEFGEEDLFHQQGDPRTTSRGCRLM
B3: SUN1 (protein, UniProt Q9D666 1-913)
chain: MDFSRLHTYTPPQCVPENTGYTYALSSSYSSDALDFETEHKLEPVFDSPRMSRRSLRLVTTASYSSGDSQAIDSHISTSRATPAKGRETRTVKQRRSASKPAFSINHLSGKGLSSSTSHDSSCSLRSATVLRHPVLDESLIREQTKVDHFWGLDDDGDLKGGNKAATQGNGELAAEVASSNGYTCRDCRMLSARTDALTAHSAIHGTTSRVYSRDRTLKPRGVSFYLDRTLWLAKSTSSSFASFIVQLFQVVLMKLNFETYKLKGYESRAYESQSYETKSHESEAHLGHCGRMTAGELSRVDGESLCDDCKGKKHLEIHTATHSQLPQPHRVAGAMGRLCIYTGDLLVQALRRTRAAGWSVAEAVWSVLWLAVSAPGKAASGTFWWLGSGWYQFVTLISWLNVFLLTRCLRNICKVFVLLLPLLLLLGAGVSLWGQGNFFSLLPVLNWTAMQPTQRVDDSKGMHRPGPLPPSPPPKVDHKASQWPQESDMGQKVASLSAQCHNHDERLAELTVLLQKLQIRVDQVDDGREGLSLWVKNVVGQHLQEMGTIEPPDAKTDFMTFHHDHEVRLSNLEDVLRKLTEKSEAIQKELEETKLKAGSRDEEQPLLDRVQHLELELNLLKSQLSDWQHLKTSCEQAGARIQETVQLMFSEDQQGGSLEWLLEKLSSRFVSKDELQVLLHDLELKLLQNITHHITVTGQAPTSEAIVSAVNQAGISGITEAQAHIIVNNALKLYSQDKTGMVDFALESGGGSILSTRCSETYETKTALLSLFGVPLWYFSQSPRVVIQPDIYPGNCWAFKGSQGYLVVRLSMKIYPTTFTMEHIPKTLSPTGNISSAPKDFAVYGLETEYQEEGQPLGRFTYDQEGDSLQMFHTLERPDQAFQIVELRVLSNWGHPEYTCLYRFRVHGEPIQ
B4: lamina-associated protein LAP2 (protein, UniProt Q61029 1-452)
chain: MPEFLEDPSVLTKDKLKSELVANNVTLPAGEQRKDVYVQLYLQHLTARNRPPLAAGANSKGPPDFSSDEEREPTPVLGSGASVGRGRGAVGRKATKKTDKPRLEDKDDLDVTELSNEELLDQLVRYGVNPGPIVGTTRKLYEKKLLKLREQGTESRSSTPLPTVSSSAENTRQNGSNDSDRYSDNDEDSKIELKLEKREPLKGRAKTPVTLKQRRTEHNQSYSQAGVTETEWTSGSSTGGPLQALTRESTRGSRRTPRKRVETSQHFRIDGAVISESTPIAETIKASSNESLVANRLTGNFKHASSILPITEFSDITRRTPKKPLTRAEVGEKTEERRVDRDILKEMFPYEASTPTGISASCRRPIKGAAGRPLELSDFRMEESFSSKYVPKYAPLADVKSEKTKKRRSVPMWIKMLLFALVAVFLFLVYQAMETNQGNPFTNFLQDTKISN

Tests used:
[1] = target: T1, SUN4 (mouse (endogenous in testis cells)); experiment: co-IP; testicular cells of wild-type mice; membranes isolated by 8 M urea extraction and centrifugation at 100,000 g, dissolved in RIPA buffer; rabbit anti-SUN4 (NTD) antibody, non-specific rabbit IgG as control; Dynabeads Protein G; western blot
[2] = target: T1, SUN4 (mouse (endogenous in testis cells)); experiment: co-IP; testicular cells of wild-type mice lysed directly in RIPA buffer; guinea pig anti-SUN4 NTD antibody, non-specific guinea pig IgG as control; Dynabeads Protein G, 4°C; western blot

Row | Binder | binding [1] | binding [2]
1 | B1 | binds | –
2 | B2 | – | binds
3 | B3 | no binding | –
4 | B4 | no binding | –
